Measured values reported in patent US5635477A (The DuPont Merck Pharmaceutical Company, priority 1995, dated 1997).

Experiment: general procedure: Boc solid-phase peptide synthesis; oxime resin (substitution level=0.96 mmol/g); HBTU or TBTU with N-methylmorpholine
Settings: for isolated yield / crude mass / crude yield: whole synthesis; for isolated yield: overall
[1] = late stage modification step, acetate salt
[2] = late stage modification step, TFA salt
[3] = purification step, TFA salt, run 1
[4] = late stage modification step, fluoride salt

PEPTIDE1{[dP].[NMeArg].G.D.[Mamb]}$PEPTIDE1,PEPTIDE1,1:R1-5:R2$$$V2.0
step yield [1]: 93.3% | step yield (purification step, TFA salt): 6.4% | isolated yield (TFA salt): 3.3% | crude mass (scale 0.43 mmol, TFA salt): 211 mg | crude yield (scale 0.43 mmol, TFA salt): 60.8%

PEPTIDE1{[dS].R.G.D.[Mamb]}$PEPTIDE1,PEPTIDE1,1:R1-5:R2$$$V2.0
step yield [1]: 89% | step yield (purification step, TFA salt): 22% | isolated yield (TFA salt): 27% | crude mass (scale 0.193 mmol, TFA salt): 224 mg

PEPTIDE1{[dV].R.G.D.[Mamb]}$PEPTIDE1,PEPTIDE1,1:R1-5:R2$$$V2.0
step yield [1]: 86% | step yield (purification step, TFA salt): 57% | isolated yield (TFA salt): 58.1% | crude mass (scale 0.193 mmol, TFA salt): 199 mg

PEPTIDE1{[dV].[NMeArg].G.D.[3Apa]}$PEPTIDE1,PEPTIDE1,1:R1-5:R2$$$V2.0
step yield [2]: 50%

PEPTIDE1{[dV].[NMeArg].G.D.[4Cl-Mamb]}$PEPTIDE1,PEPTIDE1,1:R1-5:R2$$$V2.0
step yield [2]: 39%

PEPTIDE1{[dV].[NMeArg].G.D.[4I-Mamb]}$PEPTIDE1,PEPTIDE1,1:R1-5:R2$$$V2.0
step yield [2]: 95.6% | step yield (purification step, TFA salt): 39.7% recovery | isolated yield (TFA salt): overall yield 16.6% | crude yield (protected cyclic peptide, TFA salt): 46.8% | crude mass (protected cyclic peptide, scale 1.05 mmol, TFA salt): 460 mg

PEPTIDE1{[dV].[NMeArg].G.D.[4Me-Mamb]}$PEPTIDE1,PEPTIDE1,1:R1-5:R2$$$V2.0
step yield [2]: 42%

PEPTIDE1{[dV].[NMeArg].G.D.[6Cl-Mamb]}$PEPTIDE1,PEPTIDE1,1:R1-5:R2$$$V2.0
step yield [2]: 54%

PEPTIDE1{[dV].[NMeArg].G.D.[6MeO-Mamb]}$PEPTIDE1,PEPTIDE1,1:R1-5:R2$$$V2.0
step yield [2]: 63%

PEPTIDE1{[dV].[NMeArg].G.D.[8AmTet2CA]}$PEPTIDE1,PEPTIDE1,1:R1-5:R2$$$V2.0 [89a]
step yield [3]: 12.5% recovery | isolated yield (TFA salt, run 1): overall yield 6.2%

PEPTIDE1{[dV].[NMeArg].G.D.[8AmTet2CA]}$PEPTIDE1,PEPTIDE1,1:R1-5:R2$$$V2.0 [89b]
step yield [3]: 18.6% recovery | isolated yield (TFA salt, run 1): overall yield 9.3%

PEPTIDE1{[dV].[NMeArg].G.D.[Mamb6Me]}$PEPTIDE1,PEPTIDE1,1:R1-5:R2$$$V2.0
step yield [2]: 27%

PEPTIDE1{[dV].[NMeArg].G.[NMeAsp].[Mamb]}$PEPTIDE1,PEPTIDE1,1:R1-5:R2$$$V2.0
step yield [4]: 96.4% | step yield (purification step, TFA salt): 28.2% | isolated yield (TFA salt): 10.9% | crude mass (scale 0.611 mmol, TFA salt): 232 mg | crude yield (scale 0.611 mmol, TFA salt): 46.1%

PEPTIDE1{[dV].[NMeArg].G.[aMeAsp].[Mamb]}$PEPTIDE1,PEPTIDE1,1:R1-5:R2$$$V2.0 [Example 63/63a isomer #1]
step yield [3]: 8.36% | isolated yield (TFA salt, run 1): 2.5%

PEPTIDE1{[dV].[NMeArg].G.[aMeAsp].[Mamb]}$PEPTIDE1,PEPTIDE1,1:R1-5:R2$$$V2.0 [Example 63/63a isomer #2]
step yield [3]: 9.16% | isolated yield (TFA salt, run 1): 2.7%

PEPTIDE1{[dV].[NMeArg].G.[dD].[Mamb]}$PEPTIDE1,PEPTIDE1,1:R1-5:R2$$$V2.0
step yield (purification step, TFA salt): 44.4% | isolated yield (TFA salt): 20.7% | crude mass (scale 0.611 mmol, TFA salt): 257 mg | crude yield (scale 0.611 mmol, TFA salt): 51.9%

PEPTIDE1{[dV].[NMeArg].[bAla].D.[Mamb]}$PEPTIDE1,PEPTIDE1,1:R1-5:R2$$$V2.0
step yield [4]: 93.2% | step yield (purification step, TFA salt): 43.6% | isolated yield (TFA salt): 16.5% | crude mass (scale 0.586 mmol, TFA salt): 227 mg | crude yield (scale 0.586 mmol, TFA salt): 46.9%

PEPTIDE1{[dY].[NMeArg].G.D.[Mamb]}$PEPTIDE1,PEPTIDE1,1:R1-5:R2$$$V2.0
step yield (purification step, TFA salt): 11.3% | isolated yield (TFA salt): 10.8% | crude mass (scale 0.313 mmol, TFA salt): 342 mg

TFA.D-Val-NMeArg(Tos)-Gly-Asp(OcHex)-MAMB-Ox
step yield [2]: 98%

cyclo (.D-Val-NMeArg(Tos)-Gly-Asp(OcHex)-MAMB)
cyclisation yield (cyclisation step, TFA salt): 86%

cyclo-(Abu-NMeArg-Gly-Asp-Mamb)
step yield (late stage modification step, on protected cyclic peptide, TFA salt): 90.4% | step yield (purification step, TFA salt): 1.92% recovery | isolated yield (TFA salt): 0.574% | crude mass (scale 0.596 mmol, TFA salt): 182 mg | crude yield (scale 0.596 mmol, TFA salt): 38.4%

cyclo-(Ala-Arg-Gly-Asp-Mamb)
step yield [1]: 97.4% | step yield (purification step, TFA salt): 15.5% | isolated yield (TFA salt): 10.5% | crude mass (scale 0.324 mmol, TFA salt): 191 mg | crude yield (scale 0.324 mmol, TFA salt): 76.4%

cyclo-(D-Abu-(DiNMe,guanidinyl-Orn)-Gly-Asp-Mamb)
step yield [2]: overall yield 53.5% | step yield (purification step, TFA salt): 57.2% recovery

Strings that start with PEPTIDE1 are HELM notation: dots part the residues, brackets hold end groups and non-standard residues.
